Data reported in patent publication US20260124200A1, “METHOD OF TREATING NEURODEGENERATIVE DISEASES” (The Board of Trustees of the University of Illinois, priority 2022, published 2026).

Assays:
[1] = Ferrozine assay: reduction of precomplexed Fe(III) to Fe(II) under reducing conditions; assay type: physicochemical; conditions: for conversion of complexed Fe(III) to Fe(II): Fe(III) precomplexed in HEPES buffer, ferrozine and reducing agents, absorbance 562 nm; for affinity of complexation with iron: precomplexed with iron (III), strong reducing agents and ferrozine dye
[2] = DCF fluorometric assay of ROS produced by Fe(II)

Structure (SMILES)	conversion of complexed Fe(III) to Fe(II) [1]	affinity of complexation with iron [1]	ROS production induced by Fe(II) ([2]; DCF probe, compared to dopamine and DFP)	dopamine oxidation / ROS production (DCF) ([2]; dopamine precomplexed with Fe(II), small molecule added after one hour)
NCCc1ccc(O)c(O)c1 [dopamine]	robust conversion to Fe(II)	does not bind strongly to Fe(II)	–	–
Cc1c(O)c(=O)ccn1C [DFP, deferiprone]	robust conversion to Fe(II)	–	–	–
CC(C)c1cccc(=O)c(O)c1 [hinokitiol]	significantly reduced the Fe(III) conversion	strong affinity to bind to Fe(III)	greatly reduced	mitigating the dopamine oxidation
